Target: Cyclin-dependent kinase 1/cyclin B (Homo sapiens, UniProt P06493)
Experiment: Inhibition of cyclin B-CDK1 ser/thr kinase.
Format: protein-complex assay

Protein sequences, listed by entry. Tags and fused reporters are not part of them.
UniProt P06493, whole entry: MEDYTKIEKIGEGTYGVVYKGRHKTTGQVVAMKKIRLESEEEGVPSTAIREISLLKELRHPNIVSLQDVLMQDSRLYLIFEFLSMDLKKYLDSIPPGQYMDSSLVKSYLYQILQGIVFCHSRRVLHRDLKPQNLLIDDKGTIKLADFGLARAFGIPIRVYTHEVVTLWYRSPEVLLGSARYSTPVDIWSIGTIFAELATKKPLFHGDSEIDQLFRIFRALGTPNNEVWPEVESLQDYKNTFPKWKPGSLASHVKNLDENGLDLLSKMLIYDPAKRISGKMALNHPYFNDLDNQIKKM

IC50: 0.12 µM
Compound: O=C(Nc1ccccn1)Nc1cccc2c1[C@H]1CCCN1C2=O

Source: ChEMBL document CHEMBL1134322, “A novel approach for the development of selective Cdk4 inhibitors: library design based on locations of Cdk4 specific amino acid residues” (J Med Chem, 2001)
